Results are given in words; binding and its absence hold for the method and conditions named. In cells and extracts the contact can be indirect. These calls come from enrichment with a bait or labelling near it, and not all partners need be listed. For some of these results: No binding means not detected with the bait. One block for each molecule: values may come before it.
Tests used:
[1] = target: Serine/Arginine Repetitive Matrix Protein 2 (SRRM2), endogenously mVenus-labeled, wild type (human (endogenous in HEK 293T)) (UniProt Q9UQ35); assay: affinity purification with mass spectrometry
[2] = target: SRRM2 S1444P, endogenously mVenus-labeled (human (endogenous in HEK 293T)) (UniProt Q9UQ35); assay: affinity purification with mass spectrometry

By UniProt entry, the sequences of proteins in these tests, tags left out. Where a name states a change or a piece, a line headed by the entry shows the natural chain unless it says otherwise. Chains listed by the source or under a name are the forms on record and can include a tag or linker. Residues count along the entry.
UniProt Q9UQ35, residues 1-2748: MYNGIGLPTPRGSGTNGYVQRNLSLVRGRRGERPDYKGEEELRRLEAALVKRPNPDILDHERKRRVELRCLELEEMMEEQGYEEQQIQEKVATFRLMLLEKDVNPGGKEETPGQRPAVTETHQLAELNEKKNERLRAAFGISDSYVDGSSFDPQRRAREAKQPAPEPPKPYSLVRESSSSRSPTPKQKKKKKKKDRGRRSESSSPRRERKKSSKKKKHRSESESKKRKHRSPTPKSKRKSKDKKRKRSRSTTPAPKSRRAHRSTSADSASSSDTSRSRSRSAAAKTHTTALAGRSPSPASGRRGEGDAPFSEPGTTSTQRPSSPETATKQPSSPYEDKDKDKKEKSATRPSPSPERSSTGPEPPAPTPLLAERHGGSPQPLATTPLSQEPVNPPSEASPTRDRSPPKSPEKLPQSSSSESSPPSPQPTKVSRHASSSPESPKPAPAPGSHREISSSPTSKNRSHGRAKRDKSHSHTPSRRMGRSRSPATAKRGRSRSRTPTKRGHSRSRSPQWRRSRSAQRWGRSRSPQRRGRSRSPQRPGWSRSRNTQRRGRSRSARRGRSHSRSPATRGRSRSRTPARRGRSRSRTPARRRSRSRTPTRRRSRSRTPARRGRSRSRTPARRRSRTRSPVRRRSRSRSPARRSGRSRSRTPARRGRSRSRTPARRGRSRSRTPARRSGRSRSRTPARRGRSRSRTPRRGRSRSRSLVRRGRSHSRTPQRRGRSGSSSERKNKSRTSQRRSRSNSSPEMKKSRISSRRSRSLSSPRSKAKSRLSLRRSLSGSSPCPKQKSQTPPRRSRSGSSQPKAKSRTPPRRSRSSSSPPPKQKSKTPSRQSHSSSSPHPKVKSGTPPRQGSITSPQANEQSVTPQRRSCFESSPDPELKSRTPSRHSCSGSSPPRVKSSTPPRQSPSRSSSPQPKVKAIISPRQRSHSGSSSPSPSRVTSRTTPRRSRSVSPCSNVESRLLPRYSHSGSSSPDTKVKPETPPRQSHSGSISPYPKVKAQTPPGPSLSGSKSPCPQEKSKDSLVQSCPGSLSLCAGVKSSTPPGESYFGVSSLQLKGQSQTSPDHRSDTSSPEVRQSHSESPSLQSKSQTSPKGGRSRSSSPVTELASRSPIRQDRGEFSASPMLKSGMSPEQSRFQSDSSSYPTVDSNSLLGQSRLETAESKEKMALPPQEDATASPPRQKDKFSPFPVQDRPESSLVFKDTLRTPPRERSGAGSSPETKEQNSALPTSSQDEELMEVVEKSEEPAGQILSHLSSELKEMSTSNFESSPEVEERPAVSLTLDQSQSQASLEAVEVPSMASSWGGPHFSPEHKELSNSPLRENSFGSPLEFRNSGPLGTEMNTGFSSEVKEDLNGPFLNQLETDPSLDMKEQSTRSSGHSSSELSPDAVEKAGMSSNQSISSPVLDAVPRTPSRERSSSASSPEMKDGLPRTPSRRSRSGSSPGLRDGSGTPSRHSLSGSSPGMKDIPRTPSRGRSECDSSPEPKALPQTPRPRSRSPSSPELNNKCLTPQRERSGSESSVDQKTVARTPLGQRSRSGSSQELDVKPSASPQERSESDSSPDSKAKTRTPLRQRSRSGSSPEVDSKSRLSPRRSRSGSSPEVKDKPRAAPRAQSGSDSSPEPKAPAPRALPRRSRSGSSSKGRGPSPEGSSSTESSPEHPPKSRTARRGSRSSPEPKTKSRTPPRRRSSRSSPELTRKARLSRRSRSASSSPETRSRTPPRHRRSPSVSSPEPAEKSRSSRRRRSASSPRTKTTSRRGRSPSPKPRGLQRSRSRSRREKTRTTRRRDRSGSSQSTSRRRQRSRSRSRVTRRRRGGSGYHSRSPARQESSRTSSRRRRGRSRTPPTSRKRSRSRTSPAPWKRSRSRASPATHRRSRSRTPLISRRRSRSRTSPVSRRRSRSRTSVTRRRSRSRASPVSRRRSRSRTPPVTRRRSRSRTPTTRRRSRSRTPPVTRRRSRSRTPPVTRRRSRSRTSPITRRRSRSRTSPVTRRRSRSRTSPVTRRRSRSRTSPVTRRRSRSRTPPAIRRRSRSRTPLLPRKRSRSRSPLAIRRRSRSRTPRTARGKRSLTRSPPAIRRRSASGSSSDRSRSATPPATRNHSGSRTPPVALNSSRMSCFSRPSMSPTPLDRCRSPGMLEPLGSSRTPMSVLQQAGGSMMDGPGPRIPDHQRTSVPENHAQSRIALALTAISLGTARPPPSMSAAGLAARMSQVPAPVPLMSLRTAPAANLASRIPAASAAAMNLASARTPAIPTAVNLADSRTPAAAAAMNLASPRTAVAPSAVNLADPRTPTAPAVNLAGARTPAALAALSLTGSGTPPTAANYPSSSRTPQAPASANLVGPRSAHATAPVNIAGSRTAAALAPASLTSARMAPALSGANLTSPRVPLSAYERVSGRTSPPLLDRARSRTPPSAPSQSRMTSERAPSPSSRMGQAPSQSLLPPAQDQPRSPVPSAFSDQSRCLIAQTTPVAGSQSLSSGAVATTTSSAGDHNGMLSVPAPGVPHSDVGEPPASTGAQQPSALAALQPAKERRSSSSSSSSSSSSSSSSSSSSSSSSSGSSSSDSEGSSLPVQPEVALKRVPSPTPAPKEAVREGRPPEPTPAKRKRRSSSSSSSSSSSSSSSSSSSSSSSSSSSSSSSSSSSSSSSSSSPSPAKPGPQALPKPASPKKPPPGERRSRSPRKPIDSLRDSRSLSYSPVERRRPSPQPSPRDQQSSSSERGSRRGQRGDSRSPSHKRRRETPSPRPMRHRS
SRRM2 S1444P, endogenously mVenus-labeled (human (endogenous in HEK 293T)) (Q9UQ35, form named): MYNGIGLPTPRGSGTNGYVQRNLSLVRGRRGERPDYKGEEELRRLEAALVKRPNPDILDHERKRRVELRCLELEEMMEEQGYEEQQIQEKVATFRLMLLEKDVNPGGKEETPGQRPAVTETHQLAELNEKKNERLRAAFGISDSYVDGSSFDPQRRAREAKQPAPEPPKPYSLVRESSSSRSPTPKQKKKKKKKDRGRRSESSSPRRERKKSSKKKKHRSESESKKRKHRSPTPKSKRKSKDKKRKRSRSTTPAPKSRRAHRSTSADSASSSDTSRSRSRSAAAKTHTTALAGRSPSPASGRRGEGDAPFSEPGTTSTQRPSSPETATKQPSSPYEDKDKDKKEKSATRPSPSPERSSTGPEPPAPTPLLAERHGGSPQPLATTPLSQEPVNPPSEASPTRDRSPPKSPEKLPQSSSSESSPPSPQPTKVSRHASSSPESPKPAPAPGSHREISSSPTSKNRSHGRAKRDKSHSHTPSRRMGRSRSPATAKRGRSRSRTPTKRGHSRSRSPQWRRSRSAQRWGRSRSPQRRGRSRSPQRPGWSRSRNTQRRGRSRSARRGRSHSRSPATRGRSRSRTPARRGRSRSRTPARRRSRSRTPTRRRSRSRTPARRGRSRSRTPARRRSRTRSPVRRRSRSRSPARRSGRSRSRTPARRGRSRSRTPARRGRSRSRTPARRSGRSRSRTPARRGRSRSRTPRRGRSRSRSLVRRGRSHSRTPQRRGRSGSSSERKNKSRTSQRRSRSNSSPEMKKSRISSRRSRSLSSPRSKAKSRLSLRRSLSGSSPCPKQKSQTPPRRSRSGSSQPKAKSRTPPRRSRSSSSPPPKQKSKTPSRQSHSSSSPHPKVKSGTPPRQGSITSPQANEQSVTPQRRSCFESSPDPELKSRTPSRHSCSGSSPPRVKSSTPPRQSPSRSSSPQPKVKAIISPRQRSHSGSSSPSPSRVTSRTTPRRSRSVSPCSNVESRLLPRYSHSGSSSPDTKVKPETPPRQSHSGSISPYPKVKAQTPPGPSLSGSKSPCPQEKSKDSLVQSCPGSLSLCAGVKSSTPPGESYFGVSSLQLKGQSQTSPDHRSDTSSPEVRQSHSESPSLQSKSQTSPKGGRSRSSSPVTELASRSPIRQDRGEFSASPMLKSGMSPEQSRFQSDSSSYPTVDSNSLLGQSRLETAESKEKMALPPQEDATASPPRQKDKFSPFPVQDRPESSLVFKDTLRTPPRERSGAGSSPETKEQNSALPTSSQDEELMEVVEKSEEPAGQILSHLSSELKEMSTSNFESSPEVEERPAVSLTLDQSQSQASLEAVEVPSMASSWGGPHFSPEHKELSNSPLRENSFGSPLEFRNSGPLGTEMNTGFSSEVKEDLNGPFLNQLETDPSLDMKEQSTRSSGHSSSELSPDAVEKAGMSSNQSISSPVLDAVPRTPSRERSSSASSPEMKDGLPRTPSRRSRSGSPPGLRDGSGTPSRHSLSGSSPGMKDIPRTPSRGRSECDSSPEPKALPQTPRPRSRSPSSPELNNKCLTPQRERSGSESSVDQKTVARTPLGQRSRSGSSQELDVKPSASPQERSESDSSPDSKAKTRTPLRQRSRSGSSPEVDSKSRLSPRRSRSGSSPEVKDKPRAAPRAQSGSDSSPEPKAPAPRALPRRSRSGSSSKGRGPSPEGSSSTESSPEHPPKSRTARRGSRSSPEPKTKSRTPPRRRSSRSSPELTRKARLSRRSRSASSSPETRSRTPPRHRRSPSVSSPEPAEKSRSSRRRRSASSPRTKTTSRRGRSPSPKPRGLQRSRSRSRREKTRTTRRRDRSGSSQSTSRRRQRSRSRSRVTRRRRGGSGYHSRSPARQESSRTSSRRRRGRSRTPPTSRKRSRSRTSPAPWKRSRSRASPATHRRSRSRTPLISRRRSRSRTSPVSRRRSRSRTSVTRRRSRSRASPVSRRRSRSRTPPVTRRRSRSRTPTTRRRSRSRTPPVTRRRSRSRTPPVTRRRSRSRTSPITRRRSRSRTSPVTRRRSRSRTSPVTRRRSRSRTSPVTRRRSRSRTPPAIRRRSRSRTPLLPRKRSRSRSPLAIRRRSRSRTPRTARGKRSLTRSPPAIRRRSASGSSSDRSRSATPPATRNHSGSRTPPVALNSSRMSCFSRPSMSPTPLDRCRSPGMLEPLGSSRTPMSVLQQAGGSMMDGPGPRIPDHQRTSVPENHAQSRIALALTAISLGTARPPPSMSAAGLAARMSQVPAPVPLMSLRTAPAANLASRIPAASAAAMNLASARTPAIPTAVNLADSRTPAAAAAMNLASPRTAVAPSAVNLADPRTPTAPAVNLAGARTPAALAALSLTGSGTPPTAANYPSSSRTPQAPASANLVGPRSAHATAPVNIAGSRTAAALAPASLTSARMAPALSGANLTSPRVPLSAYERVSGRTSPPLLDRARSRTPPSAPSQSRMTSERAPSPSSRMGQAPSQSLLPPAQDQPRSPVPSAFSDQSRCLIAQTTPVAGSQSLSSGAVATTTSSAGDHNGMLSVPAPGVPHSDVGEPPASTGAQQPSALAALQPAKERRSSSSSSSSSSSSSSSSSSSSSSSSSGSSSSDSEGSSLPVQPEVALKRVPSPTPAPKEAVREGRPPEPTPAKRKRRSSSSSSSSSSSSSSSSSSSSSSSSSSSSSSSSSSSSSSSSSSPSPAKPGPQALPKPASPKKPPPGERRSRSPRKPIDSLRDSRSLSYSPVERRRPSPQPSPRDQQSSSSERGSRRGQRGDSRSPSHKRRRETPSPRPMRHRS
UniProt P38919: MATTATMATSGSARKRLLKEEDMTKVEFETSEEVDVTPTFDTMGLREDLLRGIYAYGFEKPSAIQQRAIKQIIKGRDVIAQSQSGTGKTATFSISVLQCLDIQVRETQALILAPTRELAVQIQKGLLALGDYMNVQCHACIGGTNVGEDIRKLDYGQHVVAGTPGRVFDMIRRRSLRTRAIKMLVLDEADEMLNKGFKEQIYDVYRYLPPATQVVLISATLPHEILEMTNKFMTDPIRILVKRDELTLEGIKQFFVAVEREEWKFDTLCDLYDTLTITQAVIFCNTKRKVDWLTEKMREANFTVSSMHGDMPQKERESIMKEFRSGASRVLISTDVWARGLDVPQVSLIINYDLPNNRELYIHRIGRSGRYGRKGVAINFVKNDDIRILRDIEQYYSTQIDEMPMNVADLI

B1: DHX8 (protein, UniProt Q14562 1-1220)
chain: MAVAVAMAGALIGSEPGPAEELAKLEYLSLVSKVCTELDNHLGINDKDLAEFVISLAEKNTTFDTFKASLVKNGAEFTDSLISNLLRLIQTMRPPAKPSTSKDPVVKPKTEKEKLKELFPVLCQPDNPSVRTMLDEDDVKVAVDVLKELEALMPSAAGQEKQRDAEHRDRTKKKKRSRSRDRNRDRDRDRERNRDRDHKRRHRSRSRSRSRTRERNKVKSRYRSRSRSQSPPKDRKDRDKYGERNLDRWRDKHVDRPPPEEPTIGDIYNGKVTSIMQFGCFVQLEGLRKRWEGLVHISELRREGRVANVADVVSKGQRVKVKVLSFTGTKTSLSMKDVDQETGEDLNPNRRRNLVGETNEETSMRNPDRPTHLSLVSAPEVEDDSLERKRLTRISDPEKWEIKQMIAANVLSKEEFPDFDEETGILPKVDDEEDEDLEIELVEEEPPFLRGHTKQSMDMSPIKIVKNPDGSLSQAAMMQSALAKERRELKQAQREAEMDSIPMGLNKHWVDPLPDAEGRQIAANMRGIGMMPNDIPEWKKHAFGGNKASYGKKTQMSILEQRESLPIYKLKEQLVQAVHDNQILIVIGETGSGKTTQITQYLAEAGYTSRGKIGCTQPRRVAAMSVAKRVSEEFGCCLGQEVGYTIRFEDCTSPETVIKYMTDGMLLRECLIDPDLTQYAIIMLDEAHERTIHTDVLFGLLKKTVQKRQDMKLIVTSATLDAVKFSQYFYEAPIFTIPGRTYPVEILYTKEPETDYLDASLITVMQIHLTEPPGDILVFLTGQEEIDTACEILYERMKSLGPDVPELIILPVYSALPSEMQTRIFDPAPPGSRKVVIATNIAETSLTIDGIYYVVDPGFVKQKVYNSKTGIDQLVVTPISQAQAKQRAGRAGRTGPGKCYRLYTERAYRDEMLTTNVPEIQRTNLASTVLSLKAMGINDLLSFDFMDAPPMETLITAMEQLYTLGALDDEGLLTRLGRRMAEFPLEPMLCKMLIMSVHLGCSEEMLTIVSMLSVQNVFYRPKDKQALADQKKAKFHQTEGDHLTLLAVYNSWKNNKFSNPWCYENFIQARSLRRAQDIRKQMLGIMDRHKLDVVSCGKSTVRVQKAICSGFFRNAAKKDPQEGYRTLIDQQVVYIHPSSALFNRQPEWVVYHELVLTTKEYMREVTTIDPRWLVEFAPAFFKVSDPTKLSKQKKQQRLEPLYNRYEEPNAWRISRAFRRR
binding [1]: binds

B2: U2AF1 (protein, UniProt Q01081 1-240)
chain: MAEYLASIFGTEKDKVNCSFYFKIGACRHGDRCSRLHNKPTFSQTIALLNIYRNPQNSSQSADGLRCAVSDVEMQEHYDEFFEEVFTEMEEKYGEVEEMNVCDNLGDHLVGNVYVKFRREEDAEKAVIDLNNRWFNGQPIHAELSPVTDFREACCRQYEMGECTRGGFCNFMHLKPISRELRRELYGRRRKKHRSRSRSRERRSRSRDRGRGGGGGGGGGGGGRERDRRRSRDRERSGRF
binding [1]: binds

B3: Apoptotic chromatin condensation inducer in the nucleus (ACIN1) (protein, UniProt Q9UKV3 1-1341)
chain: MWRRKHPRTSGGTRGVLSGNRGVEYGSGRGHLGTFEGRWRKLPKMPEAVGTDPSTSRKMAELEEVTLDGKPLQALRVTDLKAALEQRGLAKSGQKSALVKRLKGALMLENLQKHSTPHAAFQPNSQIGEEMSQNSFIKQYLEKQQELLRQRLEREAREAAELEEASAESEDEMIHPEGVASLLPPDFQSSLERPELELSRHSPRKSSSISEEKGDSDDEKPRKGERRSSRVRQARAAKLSEGSQPAEEEEDQETPSRNLRVRADRNLKTEEEEEEEEEEEEDDEEEEGDDEGQKSREAPILKEFKEEGEEIPRVKPEEMMDERPKTRSQEQEVLERGGRFTRSQEEARKSHLARQQQEKEMKTTSPLEEEEREIKSSQGLKEKSKSPSPPRLTEDRKKASLVALPEQTASEEETPPPLLTKEASSPPPHPQLHSEEEIEPMEGPAPAVLIQLSPPNTDADTRELLVSQHTVQLVGGLSPLSSPSDTKAESPAEKVPEESVLPLVQKSTLADYSAQKDLEPESDRSAQPLPLKIEELALAKGITEECLKQPSLEQKEGRRASHTLLPSHRLKQSADSSSSRSSSSSSSSSRSRSRSPDSSGSRSHSPLRSKQRDVAQARTHANPRGRPKMGSRSTSESRSRSRSRSRSASSNSRKSLSPGVSRDSSTSYTETKDPSSGQEVATPPVPQLQVCEPKERTSTSSSSVQARRLSQPESAEKHVTQRLQPERGSPKKCEAEEAEPPAATQPQTSETQTSHLPESERIHHTVEEKEEVTMDTSENRPENDVPEPPMPIADQVSNDDRPEGSVEDEEKKESSLPKSFKRKISVVSATKGVPAGNSDTEGGQPGRKRRWGASTATTQKKPSISITTESLKSLIPDIKPLAGQEAVVDLHADDSRISEDETERNGDDGTHDKGLKICRTVTQVVPAEGQENGQREEEEEEKEPEAEPPVPPQVSVEVALPPPAEHEVKKVTLGDTLTRRSISQQKSGVSITIDDPVRTAQVPSPPRGKISNIVHISNLVRPFTLGQLKELLGRTGTLVEEAFWIDKIKSHCFVTYSTVEEAVATRTALHGVKWPQSNPKFLCADYAEQDELDYHRGLLVDRPSETKTEEQGIPRPLHPPPPPPVQPPQHPRAEQREQERAVREQWAEREREMERRERTRSEREWDRDKVREGPRSRSRSRDRRRKERAKSKEKKSEKKEKAQEEPPAKLLDDLFRKTKAAPCIYWLPLTDSQIVQKEAERAERAKEREKRRKEQEEEEQKEREKEAERERNRQLEREKRREHSRERDRERERERERDRGDRDRDRERDRERGRERDRRDTKRHSRSRSRSTPVRDRGGRR
binding [2]: no binding | binding [1]: binds

Further lines, results first:

binding [1]: binds
Molecule: EIF4A3 (from UniProt P38919 1-411)

binding [1]: binds
Molecule: SON (from UniProt P18583 1-2426)

binding [1]: binds
B4: SRRM1 (protein, UniProt Q8IYB3 1-904)
chain: MDAGFFRGTSAEQDNRFSNKQKKLLKQLKFAECLEKKVDMSKVNLEVIKPWITKRVTEILGFEDDVVIEFIFNQLEVKNPDSKMMQINLTGFLNGKNAREFMGELWPLLLSAQENIAGIPSAFLELKKEEIKQRQIEQEKLASMKKQDEDKDKRDKEEKESSREKRERSRSPRRRKSRSPSPRRRSSPVRRERKRSHSRSPRHRTKSRSPSPAPEKKEKTPELPEPSVKVKEPSVQEATSTSDILKVPKPEPIPEPKEPSPEKNSKKEKEKEKTRPRSRSRSKSRSRTRSRSPSHTRPRRRHRSRSRSYSPRRRPSPRRRPSPRRRTPPRRMPPPPRHRRSRSPVRRRRRSSASLSGSSSSSSSSRSRSPPKKPPKRTSSPPRKTRRLSPSASPPRRRHRPSPPATPPPKTRHSPTPQQSNRTRKSRVSVSPGRTSGKVTKHKGTEKRESPSPAPKPRKVELSESEEDKGGKMAAADSVQQRRQYRRQNQQSSSDSGSSSSSEDERPKRSHVKNGEVGRRRRHSPSRSASPSPRKRQKETSPRGRRRRSPSPPPTRRRRSPSPAPPPRRRRTPTPPPRRRTPSPPPRRRSPSPRRYSPPIQRRYSPSPPPKRRTASPPPPPKRRASPSPPPKRRVSHSPPPKQRSSPVTKRRSPSLSSKHRKGSSPSRSTREARSPQPNKRHSPSPRPRAPQTSSSPPPVRRGASSSPQRRQSPSPSTRPIRRVSRTPEPKKIKKAASPSPQSVRRVSSSRSVSGSPEPAAKKPPAPPSPVQSQSPSTNWSPAVPVKKAKSPTPSPSPPRNSDQEGGGKKKKKKKDKKHKKDKKHKKHKKHKKEKAVAAAAAAAVTPAAIAAATTTLAQEEPVAAPEPKKETESEAEDNLDDLEKHLREKALRSMRKAQVSPQS
